From patent US20030229204A1 (Dana-Farber, published 2003)
These are yes or no findings as the source states them, for the method shown. Binding can be weak; no strength is given. Sequences can lack the tags named with a protein. For some assays here: Binding seen in cells or lysates may run through a third protein.

How the values were obtained:
[1] = biological target: retinoic acid receptor (RARα); assay: GST pull-down of in vitro-translated 35S-labeled receptor, with all-trans retinoic acid (1 µM)
[2] = biological target: thyroid hormone receptor (TRβ); assay: GST pull-down of in vitro-translated 35S-labeled receptor, autoradiography
[3] = biological target: PPARδ; assay: as above
[4] = biological target: thyroid hormone receptor (TRβ); assay: summary of the in vitro binding assays of Example IV
[5] = biological target: retinoic acid receptor (RARα); assay: as above

Measured: binding

B1: PGC-1 (aa 36-797) fused to GST (protein, not shown: a dimerising Fc or GST)
chain: LSELDVNDLDTDSFLGGLKWCSDQSEIISNQYNNEPANIFEKIDEENEANLLAVLTETLDSLPVDEDGLPSFDALTDGAVTTDNEASPSSMPDGTPPPQEAEEPSLLKKLLLAPANTQLSYNECSGLSTQNHAANHTHRIRTNPAIVKTENSWSNKAKSICQQQKPQRRPCSELLKYLTTNDDPPHTKPTENRNSSRDKCASKKKSHTQPQSQHAQAKPTTLSLPLTPESPNDPKGSPFENKTIERTLSVELSGTAGLTPPTTPPHKANQDNPFKASPKLKPSCKTVVPPPTKRARYSECSGTQGSHSTKKGPEQSELYAQLSKSSGLSRGHEERKTKRPSLRLFGDHDYCQSLNSKTDILINISQELQDSRQLDFKDASCDWQGHICSSTDSGQCYLRETLEASKQVSPCSTRKQLQDQEIRAELNKHFGHPCQAVFDDKSDKTSELRDGDFSNEQFSKLPVFINSGLAMDGLFDDSEDESDKLSYPWDGTQPYSLFDVSPSCSSFNSPCRDSVSPPKSLFSQRPQRMRSRSRSFSRHRSCSRSPYSRSRSRSPGSRSSSRSCYYYESSHYRHRTHRNSPLYVRSRSRSPYSRRPRYDSYEAYEHERLKRDEYRKEHEKRESERAKQRERQKQKAIEERRVIYVGKIRPDTTRTELRDRFEVFGEIEECTVNLRDDGDSYGFITYRYTCDAFAALENGYTLRRSNETDFELYFCGRKQFFKSNYADLDTNSDDFDPASTKSKYDSLDFDSLLKEAQRSLRR
binds: [1] | [2] | [3] | [4] | [5]
